# Measurements taken from PubChem BioAssay AID504834 (National Center for Advancing Translational Sciences (NCATS), 2011).
# About 22,000 (6.9%) of roughly 320,000 compounds were called active. The inconclusive results got no clear call from the source; some entries with a clear call stand among them for comparison. The call rests on the fitted dose curve; in most records, active means well fitted inhibition curve with a large enough effect; inconclusive means small, poorly fitted or top-dose-only effect, or another doubt; inactive means no such curve, though single readings can be large or run the other way. Where the call is inconclusive, the potency comes from a doubtful curve fit.
# Experiment: Primary qHTS for delayed death inhibitors of the malarial parasite plastid, 96 hour incubation
# Conditions: P. falciparum luciferase reporter growth; series mostly up to 28.7 µM; activity change, negative = inhibition: at the top concentration
# Summary of the method: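 P. falciparum expressing integrated firefly luciferase, in erythrocytes at 2% hematocrit, 0.05% parasitemia, incubated with compounds 96 h at 37 C, 5% CO2. Growth inhibition read as loss of luminescence; two-generation exposure targets delayed-death apicoplast inhibitors.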
# On the % scale 0 is the no-effect control and ±100 the full control effect; potency means the concentration at half of the fitted maximal effect.
SMILES,Potency,"activity change, negative = inhibition"
COc1c(O)ccc2c1CN1CCc3cc4c(cc3C1C2)OCO4 (centres undefined),active: 3.29 µM,
CCOC(=O)C(O)(c1ccc(NC(=O)c2ccc(Cl)c(Cl)c2)cc1)C(F)(F)F (centres undefined),"inconclusive: 6.57 µM [inhibitor, partial curve, poor fit]",
Cc1ccc(SC[C@H](CC(C)C)N2CCN(C)CCC2=O)cc1,,inactive: 19.7%
Cc1[nH]c(=S)[nH]c(=O)c1Cc1ccccc1,active: 13.1 µM,
CN(C)S(=O)(=O)N1CCN(S(=O)(=O)c2ccccc2)CC1,"inconclusive: 18.5 µM [inhibitor, single point]",
COc1cccc(CNCCc2c[nH]c3ccccc23)c1,"inconclusive: 18.5 µM [inhibitor, single point]",
C#CCCc1cscc1/C=[N+](\[O-])c1ccc(C(=O)OCC)cc1,"inconclusive: 13.1 µM [inhibitor, single point]",
O=c1c(C(c2c(O)nc3n(c2=O)CCS3)c2cccc3ccccc23)c(O)nc2n1CCS2,,inactive: 66.5%
Cc1cc(C(C)(C)C)ccc1OCCCCN1CCCC1,,inactive: 3.21%
COc1ccc(C2=NS(=O)(=O)N(C)C(C(=O)N3CCCCC3C)=C2)cc1 (centres undefined),,inactive: 22.6%
COc1ccc(F)cc1COc1nc(C)nc2ccccc12,"inconclusive: 5.86 µM [inhibitor, partial curve]",
Fc1ccccc1NC(=S)NC1CCCC1,"inconclusive: 18.5 µM [inhibitor, single point]",
Cc1cc(C(=O)OCC(=O)N(CC(C)C)c2c(N)n(Cc3ccccc3)c(=O)[nH]c2=O)c2ccccc2n1,"inconclusive: 11.7 µM [inhibitor, single point]",
CCOc1cc(/C=C2/C(=N)N3C(=NC2=O)SN=C3S(=O)(=O)C(C)C)ccc1OC(=O)c1ccco1,active: 8.28 µM,
Cc1nc(SCC(=O)Nc2nc3ccccc3s2)n[nH]1,"inconclusive: 9.28 µM [inhibitor, single point]",
COC(=O)c1ccc(CSc2ccc3nnc(-c4cccc(F)c4)n3n2)o1,"inconclusive: 16.5 µM [inhibitor, partial curve, poor fit]",
CC(C)CCN(C(=O)CNC(=O)c1ccco1)C(C(=O)NC1CCCCC1)c1cccnc1 (centres undefined),"inconclusive: 10.4 µM [inhibitor, partial curve]",
COc1ccccc1Nc1ncc(C(=O)N2CCN(Cc3ccc(OC)c(OC)c3OC)CC2)c2ccccc12,"inconclusive: 13.1 µM [inhibitor, single point]",
CC(=O)N1CCN(S(=O)(=O)c2cccc(C(=O)OCC(=O)N(CCC#N)c3ccc(F)cc3)c2)CC1,"inconclusive: 16.5 µM [inhibitor, single point]",
Cc1ccc(CNC(=O)C2CCCCN2S(=O)(=O)c2ccccc2)cc1 (centres undefined),,inactive: -1.19%
Cc1ccc(-c2ccc(=O)n(CCC(=O)NCc3ccccn3)n2)cc1,"inconclusive: 0.0029 µM [inhibitor, full curve, poor fit]",
CCn1ncc(Br)c1C(=O)Nc1ccc(F)c([N+](=O)[O-])c1,,inactive: -15.3%

SMILES,Potency,"activity change, negative = inhibition"
CC(C)=CCC(C)(C)C1OCCN1C(=O)c1ccccc1 (centres undefined),"inconclusive: 9.28 µM [inhibitor, partial curve, poor fit]",
O=C(NCCCCNC(=O)c1c(F)c(F)c(F)c(F)c1F)c1c(F)c(F)c(F)c(F)c1F,,inactive: -18.4%
COc1ccccc1-n1c(=O)[nH]c2c(C(N)=O)nc(CC(C)C)nc21,"inconclusive: 0.657 µM [inhibitor, full curve, poor fit]",
CC1CC(C)(C)NC(=S)N1CC(=O)NCc1ccc2c(c1)OCO2 (centres undefined),,inactive: 15.9%
CCNC1=C(Cl)C(=O)c2ccccc2C1=O,,inactive: -5.48%
COc1ccccc1-n1c(SCC(=O)N2CCCCC2)nnc1-c1ccccc1O,"inconclusive: 13.1 µM [inhibitor, single point]",
COc1ccc(C(=O)Nc2c3c(nn2-c2ccc(Cl)cc2)CS(=O)(=O)C3)cc1,"inconclusive: 10.4 µM [inhibitor, single point]",
CCN1C(=O)[C@H]2[C@@H](c3ccc(-c4cccc(Cl)c4)cc3)N[C@@](C)(C(=O)OC)[C@H]2C1=O,"inconclusive: 13.1 µM [inhibitor, partial curve, poor fit]",
CN(CC(=O)Nc1ccc(F)cc1)C(=O)c1ccc2ccccc2n1,,inactive: 3.07%
CC(C)OC(=O)C(C#N)c1nc2ccccc2nc1N1CCCC1 (centres undefined),"inconclusive: 18.5 µM [inhibitor, single point]",
Cc1ccc(NC(=O)C2CCCN(S(=O)(=O)c3ccc4[nH]c(=O)ccc4c3)C2)cc1C (centres undefined),"inconclusive: 3.7 µM [inhibitor, full curve]",
Cc1ccc(C(=O)Nc2nc(C)c(C(=O)N(C)C)s2)o1,,inactive: 10.7%
COc1ccc(C(=O)N(c2ccccn2)C2CCCCC2)c(OC)c1,"inconclusive: 13.1 µM [inhibitor, single point]",
CCCCn1c(N)c(N(CC(C)C)C(=O)C2CCN(S(=O)(=O)c3ccc(Cl)cc3)CC2)c(=O)[nH]c1=O,active: 9.28 µM,
O=C(Nc1ccc(Nc2ccccc2)cc1)C(Cl)(Cl)Cl,"inconclusive: 18.5 µM [inhibitor, single point]",
Cc1cccc(CCNC(=O)CNS(=O)(=O)c2ccc3nc(C)sc3c2)c1,"inconclusive: 2.62 µM [inhibitor, full curve]",
CN(CC(O)COCc1ccccc1F)C1CCCCC1 (centres undefined),,inactive: -6.39%
O=C(CSc1nc2ccccc2s1)N/N=C/c1ccc(C(=O)O)cc1,,inactive: -6.34%
CCOC(=O)N1CCN(C(=O)CSCC(=O)Nc2nc(-c3ccc(C)cc3)cs2)CC1,"inconclusive: 10.4 µM [inhibitor, single point]",
Cc1ccc(CNC(=O)C2(C(F)(F)F)C/C(=C\Cc3ccccc3)CCCO2)o1 (centres undefined),"inconclusive: 1.65 µM [inhibitor, partial curve, poor fit]",
O=C(Nc1nccs1)c1ccccc1Br,"inconclusive: 18.5 µM [inhibitor, single point]",
O=C(CCC(=O)N1CCN(S(=O)(=O)c2ccc(Cl)cc2)CC1)Nc1cccc(Br)c1,"inconclusive: 0.522 µM [inhibitor, full curve, poor fit]",

# Laid out differently: entries from further up
SMILES | Potency | activity change, negative = inhibition
COc1ccc(F)cc1COc1nc(C)nc2ccccc12 | inconclusive: 5.86 µM [inhibitor, partial curve] | 
Fc1ccccc1NC(=S)NC1CCCC1 | inconclusive: 18.5 µM [inhibitor, single point] | 
